In publication PMC11831433 one finds binding data, which are given here for five molecules.

Amino acid sequences for entries named in this document (tags omitted).
UniProt Q9R1K5: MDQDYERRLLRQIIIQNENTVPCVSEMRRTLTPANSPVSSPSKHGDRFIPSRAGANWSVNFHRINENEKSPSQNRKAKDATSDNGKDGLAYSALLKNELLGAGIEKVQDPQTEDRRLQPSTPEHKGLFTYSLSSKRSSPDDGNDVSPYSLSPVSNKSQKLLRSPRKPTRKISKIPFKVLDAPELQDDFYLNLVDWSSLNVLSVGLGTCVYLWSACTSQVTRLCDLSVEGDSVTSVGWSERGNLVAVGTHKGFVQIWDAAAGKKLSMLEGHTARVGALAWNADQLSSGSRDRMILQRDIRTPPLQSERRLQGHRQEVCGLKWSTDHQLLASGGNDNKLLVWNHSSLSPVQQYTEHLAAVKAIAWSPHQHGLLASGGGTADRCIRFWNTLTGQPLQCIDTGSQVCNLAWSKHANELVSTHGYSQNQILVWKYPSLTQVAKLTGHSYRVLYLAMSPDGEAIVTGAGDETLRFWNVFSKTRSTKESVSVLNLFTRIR
UniProt P24860: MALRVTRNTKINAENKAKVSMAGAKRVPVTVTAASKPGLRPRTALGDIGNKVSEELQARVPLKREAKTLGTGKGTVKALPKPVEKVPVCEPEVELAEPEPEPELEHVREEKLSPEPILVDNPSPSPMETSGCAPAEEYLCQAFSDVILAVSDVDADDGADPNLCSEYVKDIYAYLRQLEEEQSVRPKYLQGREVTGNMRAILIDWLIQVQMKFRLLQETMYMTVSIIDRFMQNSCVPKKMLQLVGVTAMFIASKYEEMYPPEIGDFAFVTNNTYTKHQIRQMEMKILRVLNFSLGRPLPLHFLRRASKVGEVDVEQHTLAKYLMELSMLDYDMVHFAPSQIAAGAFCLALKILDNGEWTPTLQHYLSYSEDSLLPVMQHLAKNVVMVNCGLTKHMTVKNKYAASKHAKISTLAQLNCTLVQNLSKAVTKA

No constants are given. Whether binding was seen depends on the method and setting. For part of these data: Binding seen in cells or lysates may run through a third protein. Some binding calls cover weakened binding; strength is not graded here. Where a sequence is shown, tags or fusion partners need not be part of it.

The target in test [1] is T1, NUSAP fused to Gal4-BD (pGBKT7-NUSAP) (UniProt Q9ERH4).
T1 sequence: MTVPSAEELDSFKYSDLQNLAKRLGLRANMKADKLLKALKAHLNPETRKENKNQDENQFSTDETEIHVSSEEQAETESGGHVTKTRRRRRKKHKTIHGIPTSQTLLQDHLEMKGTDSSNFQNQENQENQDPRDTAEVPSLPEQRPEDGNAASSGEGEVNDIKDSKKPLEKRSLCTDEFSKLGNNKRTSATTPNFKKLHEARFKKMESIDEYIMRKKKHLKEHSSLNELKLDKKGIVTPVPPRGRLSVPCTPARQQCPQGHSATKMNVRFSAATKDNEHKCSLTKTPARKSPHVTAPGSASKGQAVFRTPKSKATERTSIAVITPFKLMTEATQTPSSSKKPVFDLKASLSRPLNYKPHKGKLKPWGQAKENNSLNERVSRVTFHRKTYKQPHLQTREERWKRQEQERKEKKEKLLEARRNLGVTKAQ
Description: two-hybrid; NUSAP on Gal4-BD (pGBKT7) as bait, preys on Gal4-AD (pGADT7); yeast strain Y2HGold; growth on SD/-Ade/-His/-Leu/-Trp, 3-4 days at 30 °C.

Another test has as its target T2, BTRC-Flag (UniProt Q3ULA2).
T2 sequence: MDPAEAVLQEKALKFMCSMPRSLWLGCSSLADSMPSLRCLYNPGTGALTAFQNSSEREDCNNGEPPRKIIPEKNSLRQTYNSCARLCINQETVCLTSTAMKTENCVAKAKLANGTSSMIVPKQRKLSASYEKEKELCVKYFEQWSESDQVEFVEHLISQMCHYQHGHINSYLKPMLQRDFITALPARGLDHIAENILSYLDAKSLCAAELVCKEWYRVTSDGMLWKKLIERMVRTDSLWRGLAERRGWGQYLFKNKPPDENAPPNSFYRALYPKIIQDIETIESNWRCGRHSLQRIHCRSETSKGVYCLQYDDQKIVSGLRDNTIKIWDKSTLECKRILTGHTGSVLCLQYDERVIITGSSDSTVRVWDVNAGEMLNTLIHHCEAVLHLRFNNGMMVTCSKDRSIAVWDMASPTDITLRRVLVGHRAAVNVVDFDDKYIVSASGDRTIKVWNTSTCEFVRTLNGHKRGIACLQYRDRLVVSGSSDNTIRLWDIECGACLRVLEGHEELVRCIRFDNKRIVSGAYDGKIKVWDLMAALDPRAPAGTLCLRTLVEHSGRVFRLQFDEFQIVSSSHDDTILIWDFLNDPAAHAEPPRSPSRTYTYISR
Kind of test: co-IP; mouse oocytes microinjected with cRNAs of both tagged proteins, 4 hours in 200 µM IBMX; lysate precipitated with anti-Flag beads (16 hours, 4 °C), blotted with Flag and HA antibodies.

In a further test the target is T3, NUSAP-Flag (UniProt Q9ERH4).
T3 sequence: T1 sequence
The test is described as above.

For a further test, the target named is CDH1-HA (UniProt Q9R1K5). Kind of test: co-IP; mouse oocytes microinjected with CDH1-HA and BTRC-Flag cRNA, 4 hours in 200 µM IBMX; precipitated with anti-HA beads, blotted with HA and Flag antibodies.

As to “CDH1 fused to Gal4-AD (pGADT7-CDH1) (from UniProt Q9R1K5 1-493)”, the binding result in test [1] was “binds”. In the case of CDH1-HA (from UniProt Q9R1K5 1-493), the binding entry with BTRC-Flag and with NUSAP-Flag was “binds” each time. On to “Cyclin B1 fused to Gal4-AD (pGADT7-Cyclin B1) (from UniProt P24860 1-430)”, for which the binding result in test [1] is recorded as “no binding”.

B1: SECURIN fused to Gal4-AD (pGADT7-SECURIN) (protein, UniProt Q9CQJ7 1-199)
chain: MATLIFVDKDNEEPGRRLASKDGLKLGTGVKALDGKLQVSTPRVGKVFNAPAVPKASRKALGTVNRVAEKPMKTGKPLQPKQPTLTGKKITEKSTKTQSSVPAPDDAYPEIEKFFPFNPLDFESFDLPEEHQISLLPLNGVPLMTLNEERGLEKLLHLGPPSPLKTPFLSWESDPLYSPPSALSTLDVELPPVCYDADI
For B1, the binding result in test [1] is on record as “no binding”.

B2: BTRC-Flag (protein, UniProt Q3ULA2 1-605)
chain: T2 sequence
Consider B2, for which, in the test with CDH1-HA, the binding entry is “binds”.
